PubChem BioAssay AID1224827 – NIAID | 2016
Assay: 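Confirm genes whose knock-down changes LPS-driven TNF promoter activity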 (follow-up of hits). Cell system: RAW264.7 G9 mouse macrophage reporter clone. Knock-down reagent: single siRNA against mouse genes, 100 nM siRNA. Duration: siRNA for 2 days, then LPS about 16 h. Challenge: bacterial lipopolysaccharide (LPS), 10 ng/ml, cells fixed after overnight (about 16 h) stimulation. Measured: 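TNF promoter reporter red fluorescence in nuclei, background subtracted, normalised per plate and to non-targeting control siRNA, as z-scores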. Direction: TNF reporter z-score, mean and TNF reporter z-score: higher = stronger Tnf promoter reporter signal; gene median z, three same-vendor siRNAs: higher = stronger Tnf reporter signal for the gene. Rule for the call: 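An siRNA is called active when its mean z-score over replicates is at least +2 or at most -2; control wells get no call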.
The whole screen tested about 3,800 reagents; below is an unselected part. About 2,200 of all reagents (57%) count as active. 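Active means a strong reporter change in either direction; calls are per siRNA, not per gene; qiagen siRNAs gave weaker effects.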 A number with no mark means an inactive call. The numbers tell different reagents against one gene apart. Further read-outs or replicates are left out here. Reagent sequences are not shown.

gene,siRNA no.,"TNF reporter z-score, mean","gene median z, three same-vendor siRNAs","TNF reporter z-score, repeat 1"
Aplp2,1,-1.36,-2.57,-1.4
Aplp2,2,-2.57 (active),-2.57,-3.2
Aplp2,3,-3.62 (active),-2.57,-3.73
Aplp2,4,0.401,-0.806,1.5
Aplp2,5,-0.543,-0.806,-0.174
Aplp2,6,-2.35 (active),-0.806,-1.84
Prelid3a,1,8.3 (active),-3.62,7.25
Prelid3a,2,-3.62 (active),-3.62,-3.65
Prelid3a,3,-4.76 (active),-3.62,-4.49
Prelid3a,4,0.488,-0.936,1.23
Prelid3a,5,0.175,-0.936,1.96
Prelid3a,6,-2.14 (active),-0.936,-1.74
Ctif,1,2.6 (active),-3.3,0.785
Ctif,2,-3.3 (active),-3.3,-3.08
Ctif,3,-4.14 (active),-3.3,-4.04
Ctif,4,3.83 (active),-0.426,5.27
Ctif,5,-0.652,-0.426,-0.374
Ctif,6,-0.865,-0.426,-1.25
Nhlh1,1,-2.66 (active),-4.03,-3.18
Nhlh1,2,-4.43 (active),-4.03,-4.48
Nhlh1,3,-4.75 (active),-4.03,-3.69
Nhlh1,4,4.89 (active),0.793,8.28
Nhlh1,5,2.47 (active),0.793,4.85
Nhlh1,6,-3.06 (active),0.793,-5
Pawr,1,4.66 (active),0.113,8.18
Pawr,2,0.772,0.113,2.46
Pawr,3,-1.21,0.113,-1.14
Dnm2,1,1.12,-2.22,-0.475
Dnm2,2,-2.22 (active),-2.22,-2.88
Dnm2,3,-4.2 (active),-2.22,-4.29
Dnm2,4,4.67 (active),0.171,7.1
Dnm2,5,-0.45,0.171,-0.824
Dnm2,6,-0.653,0.171,0.417
2410018L13Rik,1,0.419,-2.28,-0.0485
2410018L13Rik,2,-2.28 (active),-2.28,-3.13
2410018L13Rik,3,-5.07 (active),-2.28,-5.15
2410018L13Rik,4,0.048,-1.19,0.638
2410018L13Rik,5,-0.716,-1.19,1.02
2410018L13Rik,6,-2.09 (active),-1.19,-2.36
Dffa,1,-1.62,-2.65,-2
Dffa,2,-2.56 (active),-2.65,-3.3
Dffa,3,-4.25 (active),-2.65,-4.49
Dffa,4,1,-1.18,4.55
Dffa,5,-1.18,-1.18,-0.795
Dffa,6,-1.53,-1.18,-0.0924
Hoxd3,1,-1.89,-4.54,-1.64
Hoxd3,2,-4.64 (active),-4.54,-5.4
Hoxd3,3,-5.46 (active),-4.54,-5.2
Hoxd3,4,2.64 (active),1.29,4.96
Hoxd3,5,1.04,1.29,2.27
Hoxd3,6,1.25,1.29,3.55
S1pr1,1,-0.507,-2.7,-0.187
S1pr1,2,-2.7 (active),-2.7,-2.93
S1pr1,3,-3.98 (active),-2.7,-3.28
S1pr1,4,2.26 (active),0.718,3.14
S1pr1,5,0.718,0.718,1.36
S1pr1,6,-3.27 (active),0.718,-3.46
Pla2g4a,1,3.85 (active),-4.14,4.42
Pla2g4a,2,-4.6 (active),-4.14,-3.7
Pla2g4a,3,-4.62 (active),-4.14,-4.65
Pla2g4a,4,3.89 (active),2.45,6.55
Pla2g4a,5,2.53 (active),2.45,4.08
Pla2g4a,6,2.22 (active),2.45,3.65
Dsg1a,1,6.34 (active),2.02,6.32
Dsg1a,2,1.5,2.02,-0.212
Dsg1a,3,0.813,2.02,0.823
Dsg1a,4,2.32 (active),0.364,5.07
Dsg1a,5,0.364,0.364,1.05
Dsg1a,6,0.514,0.364,1.79
Atg12,1,-1.9,-2.5,-2.27
Atg12,2,-2.5 (active),-2.5,-2.61
Atg12,3,-3.23 (active),-2.5,-3.61
Atg12,4,2.81 (active),0.621,4.28
Atg12,5,0.621,0.621,1.14
Atg12,6,-2.15 (active),0.621,-1.74
